# From PubChem BioAssay AID1487 (National Center for Advancing Translational Sciences (NCATS), 2009)
# Several values for one entry are separate records, joined by “and”; a condition that tells them apart may be missing. Equal entries are not always repeated. The list shows a part of the results. Shown are side measurements of this screen, not its main read-out; they come without a call. The list favours compounds with an active or inconclusive main result. Potencies come from curve fits of mixed quality, noted in brackets.
# Experiment: qHTS Assay for Modulators of Lamin A Splicing
# Details: HeLa LMNA splicing GFP/RFP minigene ratio, 48 h
# Summary of the method: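 Read-out is the ratio of GFP to DsRed2 object intensity, acquired by 488 nm laser-scanning cytometry on HeLa lamin A-EGFP minigene reporter cells. Compound incubation 48 hrs at 37 °C in Opti-MEM with 2% FBS; DMSO 0.5% final.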
# [1] = measured here: RFP viability control channel
# [2] = measured here: GFP splicing reporter channel
Structure (SMILES),AC50 [1],AC50 [2]
O=C(NCc1ccccc1Cl)C1CCCN(c2nc3ccsc3c(=O)s2)C1 (centres undefined),"0.0355 µM [falling, full curve, poor fit]",
CN(C(=O)CSc1nc2ccccc2n1CC(=O)N(C)c1ccc(F)cc1)c1ccccc1,,"0.0447 µM [rising, full curve, poor fit]"
Cc1ccccc1-n1ncc2c(SCC(=O)N3c4ccccc4CC3C)ncnc21 (centres undefined),,"22.4 µM [falling, partial curve, poor fit]"
O=[N+]([O-])c1cc(Cl)cc(/C=N\Nc2ccccn2)c1O,"3.16 µM [rising, single point]",
Cc1nnc(SCC(=O)Nc2nc3c(s2)CC(C)CC3)s1 (centres undefined),"11.2 µM [rising, single point]",
CCC(/C=C1\Sc2ccc(OC)cc2N1CCO)=C\c1sc2ccc(OC)cc2[n+]1CCO,"12.6 µM [rising, partial curve]",
Cc1ccc(CNC(=O)CN2C(=O)C3(SCC(=O)N3c3cc(C)cc(C)c3)c3ccccc32)cc1 (centres undefined),,"39.8 µM [falling, partial curve, poor fit]"
CCN1C(c2ccc(F)cc2)=CS/C1=C(\C#N)c1nnc2n1-c1ccccc1SC2,"0.708 µM [rising, single point]",
COc1cc(/C=C/C(=O)c2ccc(O)cc2)ccc1OCC#N,"2.82 µM [rising, full curve]",
O=C(c1cccc(S(=O)(=O)N2CCCCC2)c1)N1CCc2ccccc21,"20 µM [rising, single point]",
CC(=O)N=c1n(C)c2ccccc2n1CCOc1ccccc1,"31.6 µM [rising, single point]","35.5 µM [rising, single point]"
CC1=NN(c2ccc(Cl)cc2)C(=O)C1C(c1ccccc1O)c1c(C)[nH]n(-c2ccc(Cl)cc2)c1=O (centres undefined),"12.6 µM [rising, single point]",
Cc1ccc2[nH]c(O)c(N=NC(=O)C3CC3c3ccccc3)c2c1Br (centres undefined),"11.2 µM [rising, partial curve, poor fit]",
Cc1ccc(NNC(=O)c2ccno2)cc1Cl,"0.0708 µM [falling, partial curve, poor fit]",
COc1ccc(/C=N\NC(=O)CNC(=O)C(c2ccccc2)c2ccccc2)cc1[N+](=O)[O-],"0.251 µM [rising, full curve, poor fit]",
COc1ccccc1NS(=O)(=O)c1cc(NC(=O)Nc2cccc(C)c2)ccc1N1CCCCC1,"0.178 µM [rising, full curve]",
Nc1nc(NCc2ccco2)nc(N2CCCCCC2)c1[N+](=O)[O-],"7.08 µM [rising, partial curve]","0.891 µM [rising, full curve]"
CCC1(c2ccc(F)cc2)NC(=O)N(CC(=O)Nc2ccc(C)c(S(=O)(=O)N3CCOCC3)c2)C1=O (centres undefined),"7.94 µM [rising, partial curve]","5.01 µM [rising, partial curve]"
COc1ccc(-c2csc(N3CCN(C(=O)c4ccco4)CC3)n2)cc1,"35.5 µM [rising, single point]",

Structure (SMILES),AC50 [1],AC50 [2]
O=S(=O)(NCCc1ccc(F)cc1)c1cccc2cccnc12,,"0.0355 µM [rising, full curve, poor fit]"
CC[n+]1c(/C=C2\C=C(C)CC(C)(C)C2)sc2ccccc21,"3.16 µM [rising, full curve, poor fit]","5.62 µM [rising, partial curve]"
CCc1nc2c(sc3nc4c(cc32)COC(C)(C)C4)c(=O)n1Cc1ccco1,"20 µM [rising, single point]",
COc1cc(-c2c(C#N)c(N)nc3c2CCCC3)ccc1O,"17.8 µM [rising, single point]","15.8 µM [rising, single point]"
CN1CCN(c2ncc3nc(CCc4ccccc4)c(=O)n(CCc4ccccc4)c3n2)CC1,"15.8 µM [falling, single point]",
O=C(CN1C(=O)C2C3CCC(C3)C2C1=O)N1CCN(Cc2ccccc2)CC1 (centres undefined),"0.00447 µM [falling, full curve, poor fit]",
Cc1ccc(C(=O)c2c[nH]c(C(=O)NCc3cccnc3)c2)cc1,"10 µM [rising, partial curve, poor fit]",
C[C@@H]1Cc2ccccc2N1NC(=O)c1ccc(Cl)c(S(N)=O)c1 (some centres undefined),"1.78 µM [falling, partial curve]","0.00447 µM [falling, full curve, poor fit]"
Cn1nnnc1SCCNCc1ccccc1OCc1ccc(Cl)cc1,"17.8 µM [rising, partial curve]",
COc1cc(/C=N/NC(=O)c2ccoc2C)ccc1O,"20 µM [rising, partial curve, poor fit]",
COc1ccc(OC)c(Nc2cc(C)nc3ccccc23)c1,"12.6 µM [rising, single point]","12.6 µM [rising, single point]"
CCCc1cc(C(=O)N2CCN(S(=O)(=O)c3ccc(OC)c(OC)c3)CC2)cs1,"31.6 µM [rising, single point]",
c1ccc(-c2nnc(SCc3nc4ccccc4[nH]3)n2Cc2ccco2)nc1,"12.6 µM [rising, single point]",
CCc1ccc(Sc2cc(C(=O)NCCCOC(C)C)c3ccccc3n2)cc1,"0.447 µM [falling, full curve, poor fit]",
CCOc1ccc2[nH]c3c(N4CCN(c5ccccn5)CC4)ncnc3c2c1,"31.6 µM [rising, single point]",
O=C(CSc1n[nH]c(-c2cccs2)n1)N1CCN(S(=O)(=O)c2ccc3ccccc3c2)CC1,"12.6 µM [rising, partial curve]",
Cc1ccc(S(=O)(=O)Nc2c(C)ccc3nsnc23)cc1,"11.2 µM [rising, single point]",
O=C(NC(c1ccc(Cl)cc1)c1cc(Cl)c2cccnc2c1O)c1cccnc1 (centres undefined),"3.55 µM [rising, full curve]","5.01 µM [rising, full curve]"
CC(C(=O)NC1CCCC1)N(C(=O)c1ccc(-c2ccccc2)[nH]1)c1ccccc1F (centres undefined),"35.5 µM [falling, single point]","12.6 µM [falling, single point]"

Structure (SMILES),AC50 [1],AC50 [2]
OCCN1CCN(CC/C=C2\c3ccccc3Sc3ccc(C(F)(F)F)cc32)CC1,,"0.00126 µM [falling, full curve, poor fit]"
CN/N=C/c1ccc(C#N)cc1,"3.98 µM [rising, full curve, poor fit]",
CCOC(=O)N1CCN(C(=O)C(NC(=O)c2ccc(CC)cc2)C(C)C)CC1 (centres undefined),"14.1 µM [rising, single point]","3.55 µM [rising, partial curve, poor fit]"
CC1Nc2ccccc2C(=O)N1NC(=O)c1ccc(Br)cc1 (centres undefined),,"0.0562 µM [rising, full curve, poor fit]"
CCOC(=O)C(C)n1nc(C)c2sc3ccccc3c2c1=O (centres undefined),"5.62 µM [rising, single point]",
O=C(Nc1ccc(Cc2ccncc2)cc1)c1cccc([N+](=O)[O-])c1,"11.2 µM [rising, partial curve]","2.82 µM [rising, partial curve]"
Cc1cc(C(=O)N/N=C/c2cc([N+](=O)[O-])ccc2O)c2ccccc2n1,"15.8 µM [rising, partial curve]","12.6 µM [rising, single point]"
O=C(CSc1ncc(CO)n1Cc1ccc(Cl)cc1)NCc1ccc(F)cc1,,"39.8 µM [falling, single point]"
Cc1ccccc1C(=O)Nc1ccc(C(=O)OCc2cc(=O)n3nc(C(C)C)sc3n2)cc1,"12.6 µM [rising, single point]","2.51 µM [falling, partial curve, poor fit]"
COc1ccc(CSCC(=O)N/N=C/c2ccccc2O)cc1,"35.5 µM [falling, single point]","8.91 µM [falling, partial curve, poor fit]"
CC(C)O,"1.12 µM [falling, single point]","0.0282 µM [rising, full curve, poor fit]"
COc1cc(/C=N/NC(=S)Nc2cccc(S(=O)(=O)N(C)C)c2)ccc1O,"5.01 µM [rising, partial curve, poor fit]","8.91 µM [rising, partial curve, poor fit]"
COc1ccc(NC(=S)N2CCN(c3ccccn3)CC2)cc1OC,,"0.0282 µM [falling, full curve, poor fit]"
COc1ccccc1NC(=O)c1cnc(Nc2ccccc2OC)c2ccccc12,"0.794 µM [rising, full curve, poor fit]",
COc1ccc(OCC(=O)Nc2ccc(S(=O)(=O)Nc3cc(C)nc(C)n3)cc2)cc1,"0.251 µM [rising, partial curve, poor fit]","6.31 µM [rising, single point]"
CCc1c(C)nc2ncnn2c1N1CCC(C(=O)NCc2ccc3c(c2)OCO3)CC1,"10 µM [rising, single point]",
Oc1ccccc1N=Nc1ccccc1O,"5.62 µM [rising, single point]",
COC(=O)Nc1nc2ccc(Sc3ccccc3)cc2[nH]1,"316 nM [rising, full curve] and 5.01 µM [rising, full curve]","708 nM [falling, full curve] and 8.91 µM [rising, partial curve, poor fit]"

# 5 of these compounds in a different format.
Structure (SMILES) | AC50 [1] | AC50 [2]
O=C(Nc1ccc(Cc2ccncc2)cc1)c1cccc([N+](=O)[O-])c1 | 11.2 µM [rising, partial curve] | 2.82 µM [rising, partial curve]
Cc1cc(C(=O)N/N=C/c2cc([N+](=O)[O-])ccc2O)c2ccccc2n1 | 15.8 µM [rising, partial curve] | 12.6 µM [rising, single point]
COc1ccc(CSCC(=O)N/N=C/c2ccccc2O)cc1 | 35.5 µM [falling, single point] | 8.91 µM [falling, partial curve, poor fit]
COc1cc(/C=N/NC(=S)Nc2cccc(S(=O)(=O)N(C)C)c2)ccc1O | 5.01 µM [rising, partial curve, poor fit] | 8.91 µM [rising, partial curve, poor fit]
CCc1c(C)nc2ncnn2c1N1CCC(C(=O)NCc2ccc3c(c2)OCO3)CC1 | 10 µM [rising, single point] | 
